The nature of this assay: qHTS Assay for Lipid Storage Modulators in Drosophila S3 Cells.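 As to cell number change: cells counted by Cell Tracker Red CMTPX staining in the red channel.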 To be noted: BODIPY lipid droplet fluorescence, 18-24 h; for cell number change: measured here: cell count max response, cells fed with added oleic acid. The method, boiled down: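 Drosophila S3 cells loaded with oleic acid (400 uM, as added) and compounds at several concentrations; lipid droplets imaged by 488-nm laser-scanning cytometry, 500–530 nm intensity and object ratio to cell channel. Percent activity normalized to 20 uM Triacsin C.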
Background: Quantitative high-throughput screening tests each substance at several concentrations.

Where [1] appears, read: measured here: lipid fluorescence (Fed channel) AC50, cells fed with added oleic acid.
The mark [2] stands for this setting: measured here: cell number channel AC50, cells fed with added oleic acid.

This is one part of the list. The main result of the screen is listed elsewhere. These columns were measured beside it and carry no call. Compounds called inactive in the main read-out are mostly missing here. The note in brackets gives the kind of curve behind each potency; many fits are weak.

For orientation: AC50 means the midpoint of the concentration-response curve, whichever way the signal moves. A low value points to greater potency.

Take `CC(C)c1ccc(-c2cc(C(=O)N3N=C(C(F)F)CC3(O)C(F)F)c3ccccc3n2)cc1` (stereo not given): the cell number change is -84.7%.
On the same count and under the same terms, under `O=C(C1CCC1)N1CCN(S(=O)(=O)c2ccccc2)CC1` stands 6.02%; under `O=C(C(=O)N1CCN(c2ccccc2Cl)CC1)c1c[nH]c2ccccc12`, 5.7%.
In the case of `COc1cc(/C=C(\C#N)C(=O)NCC2CCCO2)ccc1OCC(=O)O` (stereo not given), the cell number change is -11.3%. The AC50 under setting [1] was 18.4 µM [falling, single point].
With `COc1ccc(C(=O)COc2ccc3ccc(=O)oc3c2)cc1`, the half-maximal activity concentration (AC50) under setting [1] was 0.164 µM [rising, full curve, poor fit].
For `Cc1c(Cc2ccccc2)c(=O)oc2cc(OCC(=O)N3CCC(C(=O)O)CC3)ccc12`, the cell number change is 2.91%.
The same measure, in the same setting: under `Cc1csc(N(C)C(=O)CSc2nnc(COc3ccccc3C)o2)n1` stands 150%.
Take `COc1ccc(NC(=O)c2cc(-c3ccco3)nc3ccccc23)cn1`: the cell number change is -1.29%. Also, the concentration at half-maximal activity (AC50) under setting [1] was 6.51 µM [falling, single point].
As to `COCCNC(=O)CN1CCN(Cc2cccc(Cl)c2)C1=O`, the cell number change was -15.3%. Under setting [1], the half-maximal activity concentration (AC50) is 29.1 µM [falling, partial curve].
For `O=C(COC(=O)CCC(=O)c1cccs1)NC1CC1`, the cell number change is -6.42%.
Turning to `O=C(c1ccc(=O)oc1)N1CCN(C(c2ccccc2)c2ccccc2)CC1`, the cell number change is 0.204%. Moreover, the concentration at half-maximal activity (AC50) under setting [1] is 0.00461 µM [falling, full curve].
Take `CS(=O)(=O)c1ccccc1-c1nnc(NC(=O)c2cccc(N3C(=O)CCC3=O)c2)o1`: the cell number change was -34.1%. The AC50 under setting [2] was 0.731 µM [falling, full curve].
With `Cc1ccc(/C=C/C(=O)N2CCCC(C)C2)cc1` (stereo not given), the cell number change is -6.03%. Also, the half-maximal activity concentration (AC50) under setting [1] was 18.4 µM [rising, partial curve].
Take `CC1CCCN(C(=O)CN(C)S(=O)(=O)c2cccc3nsnc23)C1` (stereo not given): the concentration at half-maximal activity (AC50) under setting [2] is 6.51 µM [rising, single point].
For the compound `COc1ccc(OC(=O)c2cnn(-c3ccccc3)c2C)cc1`, the cell number change was found to be 41.4%. Moreover, the AC50 under setting [2] is 29.1 µM [rising, single point].
Take `O=S1(=O)CCC(NC2CCCC2)C1` (stereo not given): the cell number change was determined as 47.7%. Under setting [2], the half-maximal activity concentration (AC50) is 8.2 µM [rising, partial curve, poor fit]. Moreover, the half-maximal activity concentration (AC50) under setting [1] was 6.51 µM [rising, single point].
With `Cc1ccc(NC(=O)COC(=O)C(NS(=O)(=O)c2ccc(Cl)cc2)C(C)O)c(Br)c1` (stereo not given), the cell number change turned out to be 17.3%. In addition, the AC50 under setting [1] was 29.1 µM [rising, partial curve, poor fit].
On to `O=c1[nH]c2ccccc2n1CCCSc1cnc2ccccc2n1`, for which the AC50 under setting [1] is 6.51 µM [rising, partial curve].
Regarding `CC(=O)N1Cc2ccccc2C(C)CC12CCCCC2` (stereo not given), the cell number change was -8.03%. Also, the AC50 under setting [1] was 20.6 µM [falling, single point].
For `CS(=O)(=O)c1ccc(C(=O)N(CCc2ccccc2)Cc2ccccc2)cc1`, the cell number change was found to be 3.81%. Moreover, the AC50 under setting [1] was 32.6 µM [rising, single point].
As for `CC(=O)Nc1ccc(NC(=O)C2CC(=O)N(C(C)C)C2)cc1` (stereo not given), the cell number change turned out to be 32.1%. For the same compound, the AC50 under setting [2] was 32.6 µM [rising, single point]. In addition, the AC50 under setting [1] is 29.1 µM [rising, single point].
On to `C/C(=N\NC(=S)NCc1ccccc1)c1ccc(C)o1`, for which the cell number change is -12.3%.
Consider `CCN1C(=O)c2cccc3c(N)ccc1c23`, for which, under setting [2], the concentration at half-maximal activity (AC50) is 6.51 µM [rising, single point].
As for `c1ccc2c(Nc3nc(-c4ccncc4)nc4ccccc34)cccc2c1`, the cell number change was 2.13%. For the same compound, the AC50 under setting [2] was 0.0461 µM [rising, single point].
For the compound `O=C1CC(c2ccccc2)CC(O)=C1C=NCCN1CCNCC1` (stereo not given), the cell number change was -20.9%. For the same compound, the AC50 under setting [1] was 0.0461 µM [falling, full curve, poor fit].
Regarding `Cc1cccc(C(=O)NC2CCN(C(=O)Nc3ccc(F)cc3)CC2)c1`, the cell number change is 1.9%.
For `OCc1nc2ccccc2n1Cc1c(F)cccc1Cl`, the cell number change was -9.48%. Besides, the AC50 under setting [1] was 6.51 µM [falling, single point].
As to `CCc1c(C)nc(SCC(=O)c2cccs2)c(C#N)c1C`, the cell number change is -0.806%. Under setting [2], the AC50 was 6.51 µM [rising, single point].
For the compound `Cc1cc(C)c(C)c(S(=O)(=O)Nc2ccc(C(=O)N3CCCC3)cc2)c1C`, the cell number change is -1.49%. The half-maximal activity concentration (AC50) under setting [2] is 0.13 µM [rising, full curve, poor fit]. The AC50 under setting [1] was 6.51 µM [rising, single point].
With `Cc1cc2c(cc1S(=O)(=O)Nc1cccc(F)c1)n(C)c(=O)c(=O)n2C`, the cell number change was -3.17%.
Still for that read-out and setting: as for `O=C(CCn1c(=S)[nH]c2ccccc2c1=O)NCCCN1CCOCC1`, the figure is -16.8%.
Consider `O=C(Nc1nc(-c2ccc(Cl)cc2)cs1)NC1CCCCC1`, for which the cell number change is -16.2%. Also, the AC50 under setting [1] was 29.1 µM [falling, single point].
Take `CCCC(=O)Nc1ccc(NC(=O)c2cccs2)cn1`: the cell number change worked out at 173%. In addition, the concentration at half-maximal activity (AC50) under setting [2] was 18.4 µM [rising, partial curve]. Under setting [1], the concentration at half-maximal activity (AC50) was 0.58 µM [rising, single point].
With `CC(=O)NCCn1c(SCC(=O)c2ccccc2)nc2ccccc2c1=O`, the cell number change worked out at 15.6%. Also, the AC50 under setting [1] is 1.64 µM [rising, full curve].
Turning to `CNC(=O)c1cc2ncc(C(F)(F)F)cc2s1`, the cell number change was -36.9%. For the same compound, the concentration at half-maximal activity (AC50) under setting [2] was 4.11 µM [falling, partial curve, poor fit].
With `O=C(c1cc([N+](=O)[O-])ccc1N1CCCC1)N1CCCCC1`, the cell number change turned out to be 0.319%. Moreover, the AC50 under setting [1] was 0.082 µM [falling, partial curve, poor fit].
Regarding `CC(=O)c1c(C)[nH]c(C(=O)CN2C(=O)NC(C)(c3ccc4c(c3)OCCO4)C2=O)c1C` (stereo not given), the cell number change came to 20%. The AC50 under setting [1] was 11.6 µM [rising, partial curve, poor fit].
As to `O=C1COc2ccc(C(=O)COC(=O)c3ccccn3)cc2N1`, the cell number change is -5.41%. The half-maximal activity concentration (AC50) under setting [1] was 29.1 µM [falling, single point].
With `O=S(=O)(Nc1ccc(N=Nc2ccccc2)cc1)c1ccccc1`, the cell number change was -48%. In addition, the AC50 under setting [2] is 18.4 µM [falling, partial curve]. Under setting [1], the AC50 was 29.1 µM [falling, single point].
Turning to `COCCn1c(SCC(=O)NCc2ccccc2)nc2ccccc21`, the cell number change was -6.67%. For the same compound, the AC50 under setting [1] was 0.103 µM [rising, full curve, poor fit].
`Cc1ccc2cc(C(c3nnnn3CC3CCCO3)N3CCc4ccccc4C3)c(=O)[nH]c2c1` (stereo not given): under setting [2], the AC50 is 0.58 µM [rising, full curve, poor fit].
On to `FC(F)(F)c1cnc(NNC(=S)Nc2ccc(Cl)cc2)c(Cl)c1`, for which the cell number change is -65.5%. For the same compound, under setting [2], the AC50 was 20.6 µM [falling, partial curve, poor fit]. For the same compound, the AC50 under setting [1] is 4.61 µM [falling, full curve].

Values taken from PubChem BioAssay AID2685 (National Center for Advancing Translational Sciences (NCATS), 2010).
